PubChem BioAssay AID504444 (National Center for Advancing Translational Sciences (NCATS), 2011)
Screen size: about 360,000 compounds; about 7,500 (2.1%) were called active. Inconclusive means that the source gave no clear call. Such entries were picked first, then a sample of the others. Calls come from the whole dose curve; as a rule, active = well fitted inhibition curve with a large enough effect; inconclusive = small, poorly fitted or top-dose-only effect, or effect the other way; inactive = flat fitted curve, though single readings scatter. Potencies of inconclusive entries are doubtful fits and often do not repeat.

Test: Nrf2 qHTS screen for inhibitors; note: nearly all actives have a fitted effect of over 60% in size
Settings: A549 ARE-Fluc reporter, luciferase luminescence, 18-24 h; activity change, negative = inhibition: at 46 µM (top of the series)
In short: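 In this cell-based qHTS, ARE-driven firefly luciferase in A549 cells reports Nrf2 activity; the luminescent signal after BugLite lysis is the measured value, with a prior CellTiter-Fluor read for cell health.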
% is set by controls: 0 for no effect and ±100 for the full control effect; potency is the fitted concentration of half-maximal effect.

| SMILES | activity change, negative = inhibition | Potency |
| --- | --- | --- |
| CC(C)C(=O)OC1=CN(Cc2ccccc2)S(=O)(=O)c2ccccc21 | inactive: 9.04% |  |
| COc1ccccc1C1C(C(N)=O)=C(C)Nc2nc(CCCO)nn21 (configuration not stated) |  | inconclusive: 29.1 µM [falling, single point] |
| Cc1cccc(C)c1Nc1c(-c2ccc(Cl)s2)nc2ncccn12 |  | inconclusive: 9.2 µM [falling, partial curve, poor fit] |
| CCOc1ccc2c(c1)C(C)=CC(C)(C)N2C(=O)Nc1ccccc1 | inactive: 9.11% |  |
| COc1ccccc1CNC(=O)/C=C/c1ccc(S(=O)(=O)N2CCOCC2)cc1 |  | inconclusive: 29.1 µM [falling, single point] |
| CCOc1cc(/C=N/NC(=O)CNc2cccc(C)c2)ccc1OC(=O)c1ccccc1 | inactive: -8.11% |  |
| CC(=O)c1cccc(NC(=O)C(OC(=O)/C=C/c2ccc3c(c2)OCO3)c2ccccc2)c1 (configuration not stated) |  | inconclusive: 11.6 µM [activator, partial curve] |
| CCOc1cc(/C=C/c2ccc3cccc([N+](=O)[O-])c3n2)cc(Cl)c1O |  | inconclusive: 11.6 µM [falling, partial curve, poor fit] |
| N#Cc1ccc(CSc2nnc(-c3ccccn3)n2-c2ccc(Cl)cc2)cc1 |  | inconclusive: 29.1 µM [falling, single point] |
| Cc1nc(SCC(=O)NC(C)c2ccccc2)c2oc3ccccc3c2n1 (configuration not stated) |  | inconclusive: 23.1 µM [falling, single point] |
| COCC1CCCCN1C(=O)c1ccc(OC)c(OC2CCN(C(C)C)CC2)c1 (configuration not stated) |  | inconclusive: 32.6 µM [falling, single point] |
| CCC(C)Sc1ccc(-c2nc3cnccn3c2NC2CCCCC2)cc1 (configuration not stated) |  | active: 23.1 µM |
| Cc1nnc(SCC(=O)Nc2ccc(-c3nc4ccccc4s3)cc2)s1 |  | inconclusive: 4.61 µM [activator, partial curve] |
| OCCN(Cc1ccccc1)Cc1ncccc1O | inactive: 3.33% |  |
| CCc1cccc(NS(=O)(=O)c2csc(C(N)=O)c2)c1 |  | inconclusive: 8.2 µM [falling, partial curve, poor fit] |
| Cc1ccc(S(=O)(=O)c2c(N)n(Cc3ccco3)c3nc4ccccc4nc23)cc1 |  | active: 18.4 µM |
| Cc1ccc2oc(C(=O)N(Cc3ccccc3F)C3CCS(=O)(=O)C3)c(C)c2c1 (configuration not stated) |  | inconclusive: 20.6 µM [falling, single point] |
| CC(Sc1nnc2ccccn12)C(=O)Nc1ccc2c(c1)OCCO2 (configuration not stated) |  | inconclusive: 4.61 µM [activator, partial curve, poor fit] |
| CCOC(=O)N1CCC(NC(=O)c2cc(S(=O)(=O)NCCc3ccccc3)ccc2F)CC1 |  | inconclusive: 18.4 µM [falling, single point] |
| COc1cccc(NC(=O)CC2C(=O)OCCN2Cc2ccccc2)c1 (configuration not stated) |  | inconclusive: 4.11 µM [activator, full curve, poor fit] |
| COc1cc(C)nc(N2CCC(C(=O)NC3CCCCC3)CC2)n1 |  | inconclusive: 20.6 µM [activator, partial curve, poor fit] |

Look-ups from the list:
In activity change, negative = inhibition, `CCOc1cc(/C=N/NC(=O)CNc2cccc(C)c2)ccc1OC(=O)c1ccccc1` has the entry inactive: -8.11%
In Potency, `COc1cc(C)nc(N2CCC(C(=O)NC3CCCCC3)CC2)n1` has the entry inconclusive: 20.6 µM [activator, partial curve, poor fit]

Next part.

| SMILES | activity change, negative = inhibition | Potency |
| --- | --- | --- |
| Cn1c(=O)[nH]c(=O)c2c1nc1n(CCO)c(-c3ccccc3)cn21 |  | inconclusive: 4.61 µM [falling, partial curve, poor fit] |
| C=Cn1cc[n+](CC(=O)c2cccs2)c1 |  | inconclusive: 23.1 µM [falling, partial curve, poor fit] |
| CCCCOc1ccc(-c2cc3c(=O)n(CC(=O)Nc4ccc(Cl)cc4Cl)ccn3n2)cc1 |  | inconclusive: 6.51 µM [activator, single point] |
| O=C1CCN(S(=O)(=O)c2cccs2)c2ccc(C(F)(F)F)cc2N1 |  | inconclusive: 1.16 µM [activator, full curve, poor fit] |
| Cc1ccc(C)c(S(=O)(=O)N2CCC(c3nc4c(nnn4Cc4ccc5c(c4)OCCO5)c(=O)[nH]3)CC2)c1 |  | inconclusive: 29.1 µM [falling, single point] |
| CCC(=O)Nc1ccc(S(=O)(=O)NCc2ccco2)cc1 |  | inconclusive: 0.92 µM [falling, full curve, poor fit] |
| CCc1nc(C)cn1S(=O)(=O)c1cc(Cl)c(OC)cc1Cl |  | inconclusive: 29.1 µM [falling, single point] |
| Cc1cccc(NC(=O)C(C)Sc2nc3ccccc3c(=O)n2CCCN2CCOCC2)c1 (configuration not stated) |  | inconclusive: 29.1 µM [activator, single point] |
| CCCn1c(NCc2ccccc2NS(=O)(=O)c2ccc(C)cc2)nc2ccccc21 |  | inconclusive: 18.4 µM [falling, single point] |
| COc1cccc(NC(=O)CSc2nccn2-c2cccc(OC)c2)c1 |  | inconclusive: 20.6 µM [falling, single point] |
| C=C1CCN(C(Cc2ccccc2)C(=O)O)S(=O)(=O)c2ccccc21 (configuration not stated) | inactive: -5.53% |  |
| O=C(CSc1cn(CC(=O)N2CCCCCC2)c2ccccc12)Nc1ccccc1F |  | active: 20.6 µM |
| CCc1nnc2c(NCc3ccccc3OC)nc3ccccc3n12 |  | inconclusive: 9.2 µM [activator, partial curve, poor fit] |
| COc1ccc(C/C(N)=N/OC(=O)c2cccs2)cc1 |  | inconclusive: 29.1 µM [falling, partial curve, poor fit] |
| CCCC(=O)N/C(N)=N/c1nc(C)c2cc(C)ccc2n1 |  | inconclusive: 16.4 µM [activator, partial curve] |
| O=C(NCC1CCCO1)C(c1cccs1)N(Cc1ccccc1Cl)C(=O)c1ccc(-c2ccccc2)[nH]1 (configuration not stated) |  | active: 23.1 µM |
| O=C(CSc1nnc(-c2ccccn2)o1)Nc1cccc(Cl)c1 |  | inconclusive: 4.61 µM [activator, partial curve] |
| Cc1ccc(C2(c3ccccc3)NC(=O)N(CC(=O)N3CC(=O)Nc4ccccc43)C2=O)cc1C (configuration not stated) |  | inconclusive: 20.6 µM [falling, partial curve, poor fit] |
| Cc1cc(C)n2nc(SCc3nnc(SCc4ccccc4Cl)s3)nc2n1 | inactive: 12.2% |  |
| COc1ccc(-c2nnc(NC(=O)CSc3ccc(C)cc3)s2)cc1OC | inactive: 6.06% |  |
| O=[N+]([O-])c1ccccc1Oc1ccc(S(=O)(=O)N2CCOCC2)cc1 |  | inconclusive: 11.6 µM [falling, partial curve, poor fit] |
